Measurements reported in PubChem BioAssay AID2685 (National Center for Advancing Translational Sciences (NCATS), 2010).
Among all 320,000 compounds or so, about 2,100 (0.66%) were called active. The inconclusive results got no clear call from the source; some entries with a clear call stand among them for comparison. Calls follow the shape of the dose curve; as a rule, active = well fitted inhibition curve with a large enough effect in the signal ratio, with a control signal flat (not every such curve was filed as active); inconclusive = small, poorly fitted or top-dose-only effect, or effect the other way, or a change in a side signal; inactive = flat fitted curve, though single readings scatter; the % refers to the signal ratio. Potencies beside an inconclusive call are fits to weak or partial responses and may not hold up.

test: qHTS Assay for Lipid Storage Modulators in Drosophila S3 Cells; settings: BODIPY lipid droplet fluorescence, 18-24 h, cells fed with added oleic acid; lipid storage change, negative = inhibition: at 46.1 µM (top of the series) unless noted
Outline: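 Drosophila S3 cells got compounds at several concentrations plus oleic acid (400 uM solution). Laser-scanning cytometry with 488 nm excitation read lipid droplets at 500-530 nm and cells at 575-640 nm. Percent activity was relative to 20 uM Triacsin C.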
% is scaled to controls: 0 for no effect and ±100 for the full control effect; potency is read from the fitted curve at half-maximal effect.

Compound	Potency	lipid storage change, negative = inhibition	outcome
CCOC(=O)N1CCN(S(=O)(=O)N2CCCC(C(=O)NCCc3ccc(C)cc3)C2)CC1 (configuration not stated)	inconclusive: 0.0046 µM [activator, full curve, poor fit]	–	–
COc1ccc(C(=O)OCCc2cc3ccccc3c(=O)o2)cc1	inconclusive: 0.146 µM [activator, single point]	–	–
CCCCNC(=O)C1CCCN1C(=O)Nc1cccc(OC)c1 (configuration not stated)	inconclusive: 23.1 µM [activator, partial curve, poor fit]	–	–
Cc1c2c(=O)n(-c3nc4ccccc4s3)nc-2cc(O)n1Cc1ccccc1	–	inconclusive: -19.6%	–
CC1(C)C(=O)Nc2ccccc2N1C(=O)COC(=O)COc1cccc(C(F)(F)F)c1	–	inconclusive: -3.67%	–
Cc1ccc(C)c(-n2c(CNC(=O)c3ccco3)nnc2SCC(=O)Nc2nnc(C)s2)c1	–	inconclusive: 54.3% [activator]	–
NC(=O)C1CCN(C(=O)CSc2nc3ccccc3s2)CC1	active: 16.4 µM	–	–
Cc1cccc(Nc2nc3c(S(=O)(=O)c4ccccc4)nnn3c3ccccc23)c1C	–	inconclusive: 9.76%	–
O=c1[nH]c(COc2ccc(Br)cc2Cl)nc2ccccc12	–	inactive: 5.12%	–
COCCOC(=O)/C(=C\c1cc(C(C)(C)C)c(O)c(C(C)(C)C)c1)C(C)=O	–	inconclusive: -1.11%	–
CCOc1ccc2nc(C)cc(Nc3cccc([N+](=O)[O-])c3)c2c1	–	inconclusive: -61.4%	–
CCOC(=O)c1[nH]c2cc(OC)c(OC)cc2c1NC(=O)c1nonc1C	–	–	inactive [at 46.1 µM]
COc1cc(C)c(C(C)C)cc1S(=O)(=O)N1CCOCC1	–	inconclusive: -17%	–
COc1ccc(S(=O)(=O)Nc2ccc(O)c3ccccc23)cc1	inconclusive: 29.1 µM [cytotoxic, single point]	–	–
COCCCNC(=O)Cn1c(=O)n(Cc2ccc(F)cc2)c(=O)c2sccc21	–	inconclusive: 12.8%	–
O=C(CSc1nnc(COc2ccccc2)o1)N1CCCC1	–	inconclusive: -81.5%	–
Cc1cc(C)c2c(c1)cc(C)c1nnc(SCC(=O)Nc3cc(C)on3)n12	–	inconclusive: 38.3%	–
COC(=O)C(Cc1c[nH]c2ccccc12)NC(=O)c1cccs1 (configuration not stated)	–	inconclusive: -22.2%	–
COc1c(O)cnn(-c2ccccc2)c1=O	inconclusive: 0.651 µM [falling, full curve, poor fit]	–	–
CN(C)c1ccc(NC(=O)c2cccc([N+](=O)[O-])c2)c2ccccc12	inconclusive: 13 µM [falling, partial curve]	–	–
CC(C)(C)OC(=O)NCCOC(=O)c1[nH]cnc1C(=O)NCc1ccccc1	–	inconclusive: -20%	–
Oc1ccc(-c2n[nH]c(=S)n2-c2ccc3c(c2)OCCO3)cc1	–	inconclusive: -4.03%	–
COc1ccc(CCC(=O)NNC(=O)c2cc(Cl)ccc2OC)cc1	inconclusive: 5.17 µM [activator, partial curve]	–	–
CCOC(=O)c1c(NC(=O)CCN2CCOCC2)sc2c1CC(C)(C)OC2	–	inconclusive: 34.3%	–
O=c1c(Cl)c(N2CCN(S(=O)(=O)c3ccc(F)cc3)CC2)cnn1-c1cccc(Cl)c1	–	inconclusive: -27.9%	–
CC(C)(C)NS(=O)(=O)c1ccc(OCC(=O)Nc2ccc3c(c2)OCCO3)cc1	inconclusive: 0.731 µM [falling, full curve, poor fit]	–	–

Five records picked at random from those above:
Compound	Potency	lipid storage change, negative = inhibition	outcome
CN(C)c1ccc(NC(=O)c2cccc([N+](=O)[O-])c2)c2ccccc12	inconclusive: 13 µM [falling, partial curve]	–	–
Cc1cccc(Nc2nc3c(S(=O)(=O)c4ccccc4)nnn3c3ccccc23)c1C	–	inconclusive: 9.76%	–
Cc1c2c(=O)n(-c3nc4ccccc4s3)nc-2cc(O)n1Cc1ccccc1	–	inconclusive: -19.6%	–
COC(=O)C(Cc1c[nH]c2ccccc12)NC(=O)c1cccs1 (configuration not stated)	–	inconclusive: -22.2%	–
CCOC(=O)c1[nH]c2cc(OC)c(OC)cc2c1NC(=O)c1nonc1C	–	–	inactive [at 46.1 µM]

Next results

Compound	Potency	lipid storage change, negative = inhibition	outcome
Cc1cc(Nc2ccc(C)c(F)c2)n2ncnc2n1	inconclusive: 16.4 µM [activator, single point]	–	–
O=C(COC(=O)c1ccc(F)c(S(=O)(=O)N2CCOCC2)c1)NC1CC1	–	inconclusive: 23.4%	–
O=C(c1ccccc1)N1CCC(c2nc3c(nnn3Cc3ccco3)c(=O)[nH]2)CC1	–	inconclusive: 26.1% [at 9.22 µM]	–
CC(C)(C)C(=O)Nc1nc2c(s1)CN(Cc1ccccc1)CC2	–	inconclusive: -22.4% [at 9.22 µM]	–
CN(Cc1ccnc2ccccc12)C(=O)C1CCC(=O)N(Cc2ccccc2F)C1 (configuration not stated)	inconclusive: 7.31 µM [activator, partial curve, poor fit]	–	–
CC(OC(=O)CCc1nc2ccccc2[nH]c1=O)c1ccccc1 (configuration not stated)	–	inconclusive: 12.7%	–
CCC(C(=O)N1CCOCC1)n1c2ccccc2c2nc(=O)cc(C)n21 (configuration not stated)	–	inconclusive: -5.42%	–
O=C(OCCN1CCCCC1)c1c[nH]c2ccccc12	–	inconclusive: -9.71%	–
COc1ccc(/C=C/C(=O)Nc2ccc(-c3nnc4n3CCCCC4)cc2)c(OC)c1	–	inconclusive: 10.8%	–
O=C(CSCC(=O)NCc1ccco1)NCc1ccco1	active: 6.51 µM	–	–
N#CCC(=O)N/N=C\c1ccccc1OC/C=C/c1ccccc1	–	inconclusive: 60.6%	–
CCc1ccc(S(=O)(=O)N(C(=O)c2ccncc2)c2ccc(OC(=O)c3ccncc3)cc2)cc1	active: 18.4 µM	–	–
COc1ccc(NC(=S)N(CCC(C)C)C2CCN(C(C)C)CC2)cc1	–	inconclusive: 36.8%	–
CCCCc1c(O)nc(SCC(=O)N2CCCCCC2)[nH]c1=O	inconclusive: 5.17 µM [activator, single point]	–	–
CCCCn1c(N)c(N(CCOC)C(=O)c2ccc(F)c(S(=O)(=O)N3CCOCC3)c2)c(=O)[nH]c1=O	–	inconclusive: 0.138%	–
NC(=O)C1CCN(C(=O)c2cccc3ccccc23)CC1	–	inconclusive: -4.89%	–
CNc1oc(-c2cccc3ccccc23)nc1C#N	inconclusive: 29.1 µM [activator, single point]	–	–
Fc1ccc(OCCCn2ccnc2)cc1	–	inconclusive: 18.1%	–
CCCCn1c(SCC(=O)NCc2ccco2)nnc1-c1ccco1	–	inactive: -2.67%	–
COC(=O)Nc1ccc(S(=O)(=O)N2CCC(C(=O)N3CCCC(C)C3)CC2)cc1 (configuration not stated)	inconclusive: 6.51 µM [cytotoxic, single point]	–	–
COc1ccc2nc3oc(C(=O)N4CCN(c5cccc(C(F)(F)F)c5)CC4)cc3cc2c1	–	inconclusive: 9.56%	–
O=C(C(=O)N1CCCc2ccccc21)N1CCCc2ccccc21	inconclusive: 2.91 µM [activator, single point]	–	–
CCCC1C2C(=O)N(c3ccc(OC)cc3)C(=O)C2ON1c1ccccc1 (configuration not stated)	–	inconclusive: -25.8%	–
Cc1occc1-c1nnc(SCC(=O)NCCc2ccccc2)n1C(C)c1ccccc1 (configuration not stated)	inconclusive: 3.66 µM [activator, full curve]	–	–
O=C(OCC(=O)N1CCCc2ccccc21)c1ccc(S(=O)(=O)C(F)F)cc1	–	inconclusive	–
CC(C)Oc1ccc(C(=O)Nc2ccc(S(=O)(=O)N3CCN(C)CC3)cc2)cc1	–	inconclusive: -13.7%	–

Compound	Potency	lipid storage change, negative = inhibition	outcome
Cc1ccccc1N1CCN(C2CCCN(C(=O)c3cn4cccc(C)c4n3)C2)CC1 (configuration not stated)	–	inconclusive: -39.6%	–
COCCn1c(SCC(=O)NC2CCCCC2C)nnc1-c1ccncc1 (configuration not stated)	–	inconclusive: -16.3%	–
CC1Sc2ccc(C(=O)Nc3cc(S(C)(=O)=O)ccc3Cl)cc2NC1=O (configuration not stated)	inconclusive: 29.1 µM [activator, single point]	–	–
CN1CCN(Cc2cccc(Oc3ccc(Cl)cc3)c2)CC1	–	inconclusive: 4.01%	–
COc1ccc(NC(=O)c2cc([N+](=O)[O-])ccc2N2CCCC2)cc1S(N)(=O)=O	–	inconclusive	–
CCOc1ccc(NC(=O)CN(C)C(=O)CCNC(=O)c2ccc(Br)cc2)cc1OCC	–	inconclusive: 32%	–
COc1ccc2c(c1)-c1nc(/N=C/c3ccccc3O)sc1CC2	–	inconclusive: 23.8%	–
CCOc1ccc(CNc2nnnn2C)cc1	–	inconclusive: -5.8%	–
N#Cc1ccc2c(c1)C[C@]1(c3ccsc3)OC3=C(C(=O)OC4(CCCCC4)C3)C2O1	–	inconclusive: -1.09% [at 9.22 µM]	–
Cc1cc(NC(=O)COC(=O)C(C)Oc2ccc(Cl)cc2Cl)no1 (configuration not stated)	–	inconclusive: -30.2%	–
CCOC(=O)c1ccc2c(c1)N(CC(=O)N1CCCC1)C(=O)C(C)(C)O2	–	inconclusive: 90.4%	–
C=CCNC(=O)CSc1nc2ccccc2c(=O)n1CCc1ccc(OC)c(OC)c1	inconclusive: 25.9 µM [falling, single point]	–	–
O=C(NCC1COCCO1)c1cc(COc2ccc(F)cc2F)on1 (configuration not stated)	inconclusive: 2.06 µM [falling, partial curve]	–	–
O=C1c2ccccc2C(=O)N1CCSc1nc2ccccc2c(=O)n1CCCN1CCOCC1	–	inconclusive: 5.53%	–
COc1ccc(-c2cc(C(F)(F)F)n3ncc(C(=O)NCC4CCCO4)c3n2)cc1OC (configuration not stated)	–	inconclusive: -22.4%	–
O=C(Cn1c(=O)cnc2ccccc21)N1CCN(S(=O)(=O)c2ccccc2Br)CC1	–	inconclusive: 36.1%	–
CC12COC3(C(=O)NCCc4ccccc4)CC1CCC32C (configuration not stated)	–	inconclusive: 0.0147%	–
CCOC(=O)c1c(-c2ccccc2)csc1NC(=O)CSc1nc(C)cc(C)n1	–	inconclusive: 36.7%	–
CCc1nc2ccc(C(=O)NCCc3ccco3)cc2nc1CC	active: 6.51 µM	–	–
O=C(Cn1cc(C(F)(F)F)ccc1=O)N1CCN(S(=O)(=O)c2ccc(Cl)cc2)CC1	–	inconclusive: 32.5%	–
COC(=O)CCCC1=CC2=CC(=O)C(C)(OC(=O)c3cccs3)C(=O)C2=CN1CCc1ccccn1 (configuration not stated)	–	inconclusive: 0.228%	–
CCCCN(CCCC)CC1OCc2ccccc2CO1	–	inconclusive: 8.24%	–
CN1c2ccccc2C(C)(C)C12C=Nc1c(cc(N3CCOCC3)c3ccccc13)O2 (configuration not stated)	–	inconclusive: -27.1%	–
CCC(=O)OCC(=O)c1cc(C)n(-c2ccc(Br)cc2)c1C	inconclusive: 6.51 µM [falling, single point]	–	–
O=C(Cn1nnc2ccccc21)c1cccc([N+](=O)[O-])c1	–	inconclusive: -5.11%	–
